Molecular target: T1, Aromatase (Homo sapiens, UniProt P11511)
T1 sequence (P11511 whole entry): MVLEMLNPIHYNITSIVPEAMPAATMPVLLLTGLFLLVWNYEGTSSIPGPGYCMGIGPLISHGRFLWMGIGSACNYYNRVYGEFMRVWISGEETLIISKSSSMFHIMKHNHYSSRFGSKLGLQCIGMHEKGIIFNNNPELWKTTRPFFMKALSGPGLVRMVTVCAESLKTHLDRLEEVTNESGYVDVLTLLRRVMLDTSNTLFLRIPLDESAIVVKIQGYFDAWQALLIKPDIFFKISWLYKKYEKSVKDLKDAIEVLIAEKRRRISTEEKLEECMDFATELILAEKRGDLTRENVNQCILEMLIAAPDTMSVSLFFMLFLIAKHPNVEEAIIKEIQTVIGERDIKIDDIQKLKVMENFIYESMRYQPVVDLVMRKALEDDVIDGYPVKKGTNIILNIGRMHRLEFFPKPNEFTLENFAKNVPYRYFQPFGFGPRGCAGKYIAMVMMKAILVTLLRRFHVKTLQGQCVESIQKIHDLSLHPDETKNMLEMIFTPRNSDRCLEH

SMILES: CC[C@]1(c2ccncc2)CC(C)(C)C(=O)NC1=O
- IC50: > 200 µM

From ChEMBL document CHEMBL1125308, “Conformational analysis of the aromatase inhibitor 3-ethyl-3-(4-pyridyl)piperidine-2,6-dione (rogletimide) and discovery of potent 5-alkyl derivatives” (J Med Chem, 1992)
